Measurements published in the supplement of paper PMC3334620.
Over roughly 33,000 sequences, “E-score (-0.5 to 0.5)” has its median near -0.016; the highest 2% begin near 0.3. Some of the results follow.

Biological target: T1, Yer184c (UniProt P39961)
T1 sequence: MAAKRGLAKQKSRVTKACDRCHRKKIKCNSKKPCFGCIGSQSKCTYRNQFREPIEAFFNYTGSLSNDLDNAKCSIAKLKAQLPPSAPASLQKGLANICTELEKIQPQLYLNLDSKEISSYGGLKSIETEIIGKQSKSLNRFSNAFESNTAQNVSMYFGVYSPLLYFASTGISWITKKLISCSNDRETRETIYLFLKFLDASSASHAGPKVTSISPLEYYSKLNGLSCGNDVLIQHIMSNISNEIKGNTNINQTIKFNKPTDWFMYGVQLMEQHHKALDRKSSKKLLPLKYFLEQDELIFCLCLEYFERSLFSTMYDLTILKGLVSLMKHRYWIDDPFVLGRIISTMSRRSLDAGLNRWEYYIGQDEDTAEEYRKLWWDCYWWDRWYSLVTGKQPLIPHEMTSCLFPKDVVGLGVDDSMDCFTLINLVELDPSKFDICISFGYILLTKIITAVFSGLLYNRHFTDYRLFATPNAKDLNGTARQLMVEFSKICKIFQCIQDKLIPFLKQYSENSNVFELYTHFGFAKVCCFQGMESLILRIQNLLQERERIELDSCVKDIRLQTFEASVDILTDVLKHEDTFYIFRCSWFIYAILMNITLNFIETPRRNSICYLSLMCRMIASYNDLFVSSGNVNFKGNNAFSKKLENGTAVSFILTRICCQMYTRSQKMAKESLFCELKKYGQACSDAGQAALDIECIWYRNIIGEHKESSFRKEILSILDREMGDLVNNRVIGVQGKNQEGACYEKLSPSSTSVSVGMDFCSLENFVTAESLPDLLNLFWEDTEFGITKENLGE
Assay: PBM E-score (8-mer binding enrichment) (E-score (-0.5 to 0.5)); higher = stronger / more preferred TF binding
Settings: protein concentration: 100 nM; construct: GST-full length
Outline: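 Yeast transcription factors carrying a GST tag, as full-length proteins or DNA-binding domains, were produced by PURExpress in vitro transcription/translation. About 100-200 nM protein was applied to universal all-10-mer Agilent arrays, double-stranded by primer extension on fresh or once-stripped slides. Bound protein was detected with fluorescent anti-GST, and scans were normalised with masliner. The Universal PBM Analysis Suite gave each ungapped eight-base word, pooled with its reverse complement, an E-score, a modified Wilcoxon-Mann-Whitney statistic.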

Row | Sequence | PBM E-score
1 | ACTAAACG | 0.0312
2 | CTGACTAC | -0.182
3 | GGAGTATA | 0.0676
4 | GACCTCCA | -0.121
5 | TCCGGCGA | 0.38
6 | AACGCGGC | 0.0651
7 | CCGGACAA | 0.29
8 | CGGTCTTC | 0.0284
9 | GTGATCGA | 0.115
10 | ATGAATGA | 0.0473
11 | GGAAAGCC | 0.0411
12 | CCCATGAG | -0.296
13 | GTCCCTTA | -0.114
14 | ATTGGCCA | -0.148
15 | TGGTGCAA | -0.134
16 | GTTCTGGA | 0.0262
17 | AGTGGTAT | -0.154
18 | AATCGCCA | -0.18
19 | TCCCGAAA | 0.196
20 | TCAAGGAA | -0.00111
21 | AAGAGTGC | -0.165
22 | ACAAGTAT | 0.0335

Row | Sequence | PBM E-score
23 | AATTTGGT | 0.162
24 | AGACTTAC | -0.243
25 | ATGCTCCG | 0.113
26 | ACCACCCA | -0.14
27 | AATGGATG | 0.0225
28 | ACAGGTAA | 0.0433
29 | ACACAACA | 0.185
30 | AATGTTTC | 0.0956
31 | GTGACTAA | 0.097
32 | GCCTAAGA | -0.0772
33 | GAGTCCGA | 0.181
34 | ACCCACGA | -0.154
35 | ATATCTCA | 0.185
36 | GAGGCTGA | -0.172
37 | GGCGAGTA | -0.0743
38 | TACGAGTA | 0.0407
39 | AAGTAAGC | 0.00484
40 | CCGAGGTC | 0.136
41 | TCTCCTCA | -0.269
42 | GGAGTCTA | -0.317
43 | ATCCTTAA | -0.129
44 | CTTCCCAA | -0.0377

Row | Sequence | PBM E-score
45 | GATATAAC | 0.124
46 | GTGGGGGA | -0.4
47 | CGATTGGC | -0.027
48 | ATCACCCG | -0.0106
49 | CTCGTCCC | -0.167
50 | CTCCAGCC | -0.233
51 | ATTATTTG | 0.111
52 | ACCTTTCG | -0.00772
53 | GTCTCTGA | 0.0262
54 | CGCTTTAA | 0.0403
55 | AATGTCAC | 0.0453
56 | ATTCTGTC | -0.0829
57 | ACATAGCT | -0.113
58 | ACATGGCC | -0.0855
59 | ACAACCTA | -0.00165
60 | TTGACCAA | -0.0616
61 | CGTAACAA | 0.143
62 | CGAAGGAG | 0.0167
63 | ACGAGTCG | -0.151
64 | ATAAACTA | 0.203
65 | GAGAGACC | -0.155
66 | ACGTCCGC | 0.114

Row | Sequence | PBM E-score
67 | ACTCGAAA | 0.148
68 | TACATCTA | 0.164
69 | ACAACCGT | 0.0402
70 | CGACGTTA | 0.175
71 | ACTACGGC | 0.0494
72 | CAAGCGGC | 0.258
73 | GACGCGGC | 0.0425
74 | ACTTGACA | -0.0214
75 | CTCTTTAC | -0.102
76 | GTTGTCAA | -0.0418
77 | GGAATACC | 0.0389
78 | AGAAAACC | 0.0683
79 | GCTATTAA | 0.158
80 | GCACATGA | -0.171
81 | CCCGGTCA | -0.0298
82 | TCACTTAA | 0.0622
83 | GTAATACA | 0.118
84 | ACCATTAG | -0.0751
85 | AAGCCCCT | -0.247
86 | ATATTGAC | -0.0324

Single values from the entries so far.
PBM E-score, CAAGCGGC is entered as 0.258
PBM E-score, CCCGGTCA is entered as -0.0298
PBM E-score, ATATTGAC is entered as -0.0324
PBM E-score, AAGCCCCT is entered as -0.247
